Assay results as given in US12447186B2, “Traditional Chinese medicine compound composition with anti-anxiety effect and preparation method and applications thereof” (Chenland Nutritionals Inc., priority 2020, dated 2025).

Test system: mice
Assay: Light-dark box test
Assay type: in vivo
Conditions: gavage one month, 5 min, Diazepam 2 mg/kg
Description: After the mice arrived, they were acclimatized for a week to enter the experiment. There were 12 mice in each group.
The normal group mice were gavaged with the same volume of purified water, and the gavage doses of other groups were illustrated in the results table section below. The mice were gavaged every morning at fixed time (9:00) with a gavage volume of 0.1 ml·10 g^−1. the administration lasted for one month, and behavioral assays were performed 1 h after the last gavage.
The light and dark box is composed of an integral box which is divided into two compartments (light area and dark area) of the same size (L×w×H=25 cm×25 cm×30 cm) by a middle gate (6.5 cm×6.5 cm). The light area is illuminated by white light, and the dark area is illuminated by red light. At the beginning of the test, each mouse was placed in the center of the light area facing the partition wall, and the middle gate was removed. Once four claws of one mouse entered the compartment, it was recorded as one entry. Supermaze software was used to record the distance in light area, retention time in light area and number of entries into light area in 5 minutes.

## CN1C(=O)CN=C(c2ccccc2)c2cc(Cl)ccc21 [Diazepam]
  Retention time in light area: 152.1 ± 6.860
